# Data as given in the supplement of paper PMC8728848.
# This is one part of the list.
# B1: BabA (Helicobacter pylori), O52269_HELPY (protein)
# chain: AEDDGFYMSAGYQIGEAAQMVKNTKGIQELSDNYENLSNLLTRYSTLNTLIKLSADPSAVNAARENLGASAKNLIGDTKNSPAYQAVLLAINAAVGFWNVVGYVTQCGGNANGQKSTSSTTIFNNEPGYRSTSITCSLNGHMPGYYGPMSIENFKKLNEAYQILQTALKNGLPALKENNGTVNVTYSYTCSGEGNDNCSLQTTGVTNQNNGTKTETQTIDGKSVTTTISSKVVDSQ
# What was measured:
# Assay in all cases: glycan array binding signal (z-score within array); higher = stronger binding
# Settings in all cases: glycan notation: IUPAC condensed, linker removed
# Fuc(b1-3)GlcNAc = target: Fuc(b1-3)GlcNAc
# Method in brief: (§1)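 Negative Z-scores can be read as non-binding. The Z-score is calculated within each array and then averaged across arrays of one protein sequence at different concentrations or buffers and across linkers. Arrays, 3228 in all, were curated from the Consortium for Functional Glycomics database and kept only where the protein sequence was available.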
# Gal(a1-2)Gal = target: Gal(a1-2)Gal
# Method in brief: as §1
# Gal(a1-3)Gal = target: Gal(a1-3)Gal
# Method in brief: as §1
# Gal(a1-3)Gal(b1-3)GlcNAc = target: Gal(a1-3)Gal(b1-3)GlcNAc
# Method in brief: as §1
# [1] = target: Gal(a1-3)Gal(b1-3)GlcNAc(b1-2)Man
# Method in brief: as §1
# [2] = target: Gal(a1-3)Gal(b1-3)GlcNAc(b1-2)Man(a1-3)[Gal(a1-3)Gal(b1-3)GlcNAc(b1-2)Man(a1-6)]Man(b1-4)GlcNAc(b1-4)GlcNAc
# Method in brief: as §1
# [3] = target: Gal(a1-3)Gal(b1-3)GlcNAc(b1-3)GalNAc
# Method in brief: as §1
# [4] = target: Gal(a1-3)Gal(b1-3)GlcNAc(b1-6)GalNAc
# Method in brief: as §1
# [5] = target: Gal(a1-3)Gal(b1-3)[Fuc(a1-4)]GlcNAc(b1-2)Man(a1-3)[Gal(a1-3)Gal(b1-3)[Fuc(a1-4)]GlcNAc(b1-2)Man(a1-6)]Man(b1-4)GlcNAc(b1-4)GlcNAc
# Method in brief: as §1
# Gal(a1-3)Gal(b1-4)Glc = target: Gal(a1-3)Gal(b1-4)Glc
# Method in brief: as §1
# Gal(a1-3)Gal(b1-4)GlcNAc = target: Gal(a1-3)Gal(b1-4)GlcNAc
# Method in brief: as §1
# [6] = target: Gal(a1-3)Gal(b1-4)GlcNAc(b1-2)Man
# Method in brief: as §1
# [7] = target: Gal(a1-3)Gal(b1-4)GlcNAc(b1-2)Man(a1-3)[Gal(a1-3)Gal(b1-4)GlcNAc(b1-2)Man(a1-6)]Man(b1-4)GlcNAc(b1-4)GlcNAc
# Method in brief: as §1
# [8] = target: Gal(a1-3)Gal(b1-4)GlcNAc(b1-3)GalNAc
# Method in brief: as §1
# [9] = target: Gal(a1-3)Gal(b1-4)GlcNAc(b1-6)GalNAc
# Method in brief: as §1
# [10] = target: Gal(a1-3)Gal(b1-4)[Fuc(a1-3)]GlcNAc
# Method in brief: as §1
# [11] = target: Gal(a1-3)Gal(b1-4)[Fuc(a1-3)]GlcNAc(b1-2)Man(a1-3)[Gal(a1-3)Gal(b1-4)[Fuc(a1-3)]GlcNAc(b1-2)Man(a1-6)]Man(b1-4)GlcNAc(b1-4)GlcNAc
# Method in brief: as §1
# Gal(a1-3)GalNAc = target: Gal(a1-3)GalNAc
# Method in brief: as §1
# [12] = target: Gal(a1-3)[Gal(a1-4)]Gal(b1-4)GlcNAc
# Method in brief: as §1
# [13] = target: Gal(a1-4)Gal(b1-3)GlcNAc(b1-2)Man(a1-3)[Gal(a1-4)Gal(b1-3)GlcNAc(b1-2)Man(a1-6)]Man(b1-4)GlcNAc(b1-4)GlcNAc
# Method in brief: as §1
# Gal(a1-4)Gal(b1-4)Glc = target: Gal(a1-4)Gal(b1-4)Glc
# Method in brief: as §1
# Gal(a1-4)Gal(b1-4)GlcNAc = target: Gal(a1-4)Gal(b1-4)GlcNAc
# Method in brief: as §1
# [14] = target: Gal(a1-4)Gal(b1-4)GlcNAc(b1-2)Man(a1-3)[Gal(a1-4)Gal(b1-4)GlcNAc(b1-2)Man(a1-6)]Man(b1-4)GlcNAc(b1-4)GlcNAc
# Method in brief: as §1
# [15] = target: Gal(a1-4)Gal(b1-4)GlcNAc(b1-3)Gal(b1-4)Glc
# Method in brief: as §1
# Gal(a1-4)GlcNAc = target: Gal(a1-4)GlcNAc
# Method in brief: as §1
# Gal(a1-6)Glc = target: Gal(a1-6)Glc
# Method in brief: as §1
# Gal(b1-2)Gal = target: Gal(b1-2)Gal
# Method in brief: as §1
# Gal(b1-3)Gal = target: Gal(b1-3)Gal
# Method in brief: as §1
# Gal(b1-3)Gal(b1-4)GlcNAc = target: Gal(b1-3)Gal(b1-4)GlcNAc
# Method in brief: as §1
# [16] = target: Gal(b1-3)Gal(b1-4)GlcNAc(b1-2)Man(a1-3)[Gal(b1-3)Gal(b1-4)GlcNAc(b1-2)Man(a1-6)]Man(b1-4)GlcNAc(b1-4)GlcNAc
# Method in brief: as §1
# Gal(b1-3)GalNAc = target: Gal(b1-3)GalNAc
# Method in brief: as §1
# [17] = target: Gal(b1-3)GalNAc(a1-3)[Fuc(a1-2)]Gal(b1-4)Glc
# Method in brief: as §1
# [18] = target: Gal(b1-3)GalNAc(a1-3)[Fuc(a1-2)]Gal(b1-4)GlcNAc
# Method in brief: as §1
# Gal(b1-3)GalNAc(b1-3)Gal = target: Gal(b1-3)GalNAc(b1-3)Gal
# Method in brief: as §1
# [19] = target: Gal(b1-3)GalNAc(b1-3)Gal(a1-4)Gal(b1-4)Glc
# Method in brief: as §1
# [20] = target: Gal(b1-3)GalNAc(b1-4)Gal(b1-4)Glc
# Method in brief: as §1
# [21] = target: Gal(b1-3)GalNAc(b1-4)[Neu5Ac(a2-3)]Gal(b1-4)Glc
# Method in brief: as §1
# Gal(b1-3)GlcNAc = target: Gal(b1-3)GlcNAc
# Method in brief: as §1
# [22] = target: Gal(b1-3)GlcNAc(a1-3)Gal(b1-4)GlcNAc
# Method in brief: as §1
# [23] = target: Gal(b1-3)GlcNAc(a1-6)Gal(b1-4)GlcNAc
# Method in brief: as §1
# Gal(b1-3)GlcNAc(b1-2)Man = target: Gal(b1-3)GlcNAc(b1-2)Man
# Method in brief: as §1
# [24] = target: Gal(b1-3)GlcNAc(b1-2)Man(a1-3)[Gal(b1-3)GlcNAc(b1-2)Man(a1-6)]Man(b1-4)GlcNAc(b1-4)GlcNAc
# Method in brief: as §1
# [25] = target: Gal(b1-3)GlcNAc(b1-2)Man(a1-3)[Gal(b1-3)GlcNAc(b1-2)Man(a1-6)]Man(b1-4)GlcNAc(b1-4)[Fuc(a1-6)]GlcNAc
# Method in brief: as §1
# [26] = target: Gal(b1-3)GlcNAc(b1-2)Man(a1-3)[GlcNAc(b1-4)][Gal(b1-3)GlcNAc(b1-2)Man(a1-6)]Man(b1-4)GlcNAc(b1-4)GlcNAc
# Method in brief: as §1
# [27] = target: Gal(b1-3)GlcNAc(b1-2)[Gal(b1-3)GlcNAc(b1-6)]Man(a1-6)[Gal(b1-3)GlcNAc(b1-2)Man(a1-3)]Man(b1-4)GlcNAc(b1-4)GlcNAc
# Method in brief: as §1
binder,measurement,setting,value
B1,glycan array binding signal (z-score),Fuc(b1-3)GlcNAc,0.195
same,glycan array binding signal (z-score),Gal(a1-2)Gal,0.151
same,glycan array binding signal (z-score),Gal(a1-3)Gal,0.62
same,glycan array binding signal (z-score),Gal(a1-3)Gal(b1-3)GlcNAc,0.003
same,glycan array binding signal (z-score),[1],-0.582
same,glycan array binding signal (z-score),[2],0.717
same,glycan array binding signal (z-score),[3],-0.391
same,glycan array binding signal (z-score),[4],-0.646
same,glycan array binding signal (z-score),[5],1.82
same,glycan array binding signal (z-score),Gal(a1-3)Gal(b1-4)Glc,-0.338
same,glycan array binding signal (z-score),Gal(a1-3)Gal(b1-4)GlcNAc,-0.497
same,glycan array binding signal (z-score),[6],0.081
same,glycan array binding signal (z-score),[7],-0.16
same,glycan array binding signal (z-score),[8],-0.591
same,glycan array binding signal (z-score),[9],-0.564
same,glycan array binding signal (z-score),[10],-0.847
same,glycan array binding signal (z-score),[11],0.242
same,glycan array binding signal (z-score),Gal(a1-3)GalNAc,-0.334
same,glycan array binding signal (z-score),[12],-0.843
same,glycan array binding signal (z-score),[13],-0.164
same,glycan array binding signal (z-score),Gal(a1-4)Gal(b1-4)Glc,-0.26
same,glycan array binding signal (z-score),Gal(a1-4)Gal(b1-4)GlcNAc,0.146
same,glycan array binding signal (z-score),[14],-0.028
same,glycan array binding signal (z-score),[15],0.167
same,glycan array binding signal (z-score),Gal(a1-4)GlcNAc,-0.104
same,glycan array binding signal (z-score),Gal(a1-6)Glc,-0.485
same,glycan array binding signal (z-score),Gal(b1-2)Gal,0.59
same,glycan array binding signal (z-score),Gal(b1-3)Gal,0.209
same,glycan array binding signal (z-score),Gal(b1-3)Gal(b1-4)GlcNAc,-0.322
same,glycan array binding signal (z-score),[16],0.28
same,glycan array binding signal (z-score),Gal(b1-3)GalNAc,-0.024
same,glycan array binding signal (z-score),[17],-0.915
same,glycan array binding signal (z-score),[18],-0.885
same,glycan array binding signal (z-score),Gal(b1-3)GalNAc(b1-3)Gal,0.308
same,glycan array binding signal (z-score),[19],0.544
same,glycan array binding signal (z-score),[20],0.303
same,glycan array binding signal (z-score),[21],0.035
same,glycan array binding signal (z-score),Gal(b1-3)GlcNAc,0.011
same,glycan array binding signal (z-score),[22],-0.537
same,glycan array binding signal (z-score),[23],0.39
same,glycan array binding signal (z-score),Gal(b1-3)GlcNAc(b1-2)Man,-0.119
same,glycan array binding signal (z-score),[24],-0.37
same,glycan array binding signal (z-score),[25],-0.423
same,glycan array binding signal (z-score),[26],0.444
same,glycan array binding signal (z-score),[27],0.181

# Laid out differently: results already given.
binder | measurement | setting | value
B1 | glycan array binding signal (z-score) | Gal(a1-2)Gal | 0.151
same | glycan array binding signal (z-score) | [12] | -0.843
same | glycan array binding signal (z-score) | [27] | 0.181
